No constants are given. Whether binding was seen depends on the method and setting. For some assays here: Binding seen in cells or lysates may run through a third protein. Some entries that bind do so weakly or less than the wild type.
Key:
[1] = target: N-terminal intracellular domain (amino acid position 1-127) of Nav1.8 as in-frame fusion with the LexA-DNA binding domain (two-hybrid bait, pEG202) (rat); test: yeast two-hybrid screen (beta-galactosidase activity and growth without leucine), bait LexA-Nav1.8 1-127
[2] = target: N-terminal intracellular domain (amino acid position 1-127) of Nav1.8 as in-frame fusion with the LexA-DNA binding domain (two-hybrid bait, pEG202) (rat); test: yeast two-hybrid screen, bait LexA-Nav1.8 1-127
[3] = target: GST-N3 (rat) (UniProt Q62968); test: GST pull-down on glutathione-sepharose beads, anti-GFP immunoblot
[4] = target: GST-N3 (rat) (UniProt Q62968); test: GST pull-down
[5] = target: GFP/p11-2 fusion protein (rat) (UniProt P05943); test: GST pull-down on glutathione-sepharose beads, anti-GFP immunoblot

Molecule: full length rat p11 expressed as in-frame fusion with the Gal4 transcriptional activation domain (two-hybrid library clone) (from UniProt P05943 1-95)
- binding [1]: binds
- binding [2]: binds

B1: GFP-p11 fusion protein (other, not shown: large carriers; small tags and cut ends)
chain: MPSQMEHAMETMMLTFHRFAGEKNYLTKEDLRVLMEREFPGFLENQKDPLAVDKIMKDLDQCRDGKVGFQSFLSLVAGLIIACNDYFVVHMKQKK
notes: Expressed from pBS-GFP/p11 in COS-7 cells and used as cell extract
- binding [3]: binds
- binding [4]: binds

B2: GST/Nav1.8 N-terminus fusion protein, designated GST-SNS(I) (other)
chain: MELPFASVGTTNFRRFTPESLAEIEKQIAAHRAAKKARTKHRGQEDKGEKPRPQLDLKDCNQLPKFYGELPAELVGEPLEDLDPFYSTHRTFMVLNKSRTISRFSATWALWLFSPFNLIRRTAIKVS
notes: also called GST/SNS(I) fusion protein; not shown: glutathione-S-transferase (GST) as encoded by vector pGEX-5X-1 (Amersham Pharmacia Biotech); species and limits not stat; vector-encoded residues between GST and the EcoRI site of pGEX-5X-1
- binding [5]: binds

— patent US20040248207A1 (UNIVERSITY COLLEGE LONDON, published 2004)
